Among all 360,000 compounds or so, about 7,500 (2.1%) were called active. Inconclusive results, whose numbers are uncertain, are shown with a selection of clear calls. Calls follow the shape of the dose curve; as a rule, active = well fitted inhibition curve with a large enough effect; inconclusive = small, poorly fitted or top-dose-only effect, or effect the other way; inactive = flat fitted curve, though single readings scatter. Potencies of inconclusive entries are doubtful fits and often do not repeat.
Assay: Nrf2 qHTS screen for inhibitors; also: nearly all actives have a fitted effect of over 60% in size
Conditions: A549 ARE-Fluc reporter, luciferase luminescence, 18-24 h; series mostly up to 46 µM
Summary of the method: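 In this cell-based qHTS, ARE-driven firefly luciferase in A549 cells reports Nrf2 activity; the luminescent signal after BugLite lysis is the measured value, with a prior CellTiter-Fluor read for cell health.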
Potency is read from the fitted curve at half-maximal effect.

SMILES | Potency
CCCCOc1ccccc1NC(=O)Cn1c(-c2nonc2N)nc2ccccc21 | inconclusive: 9.2 µM [falling, partial curve, poor fit]
CSc1nc(N2CCN(c3ccccc3Cl)CC2)c2ccccc2n1 | inconclusive: 23.1 µM [falling, partial curve, poor fit]
COc1ccc([C@@H]2C[C@H](c3ccccc3)Oc3cc(C)cc(C)c32)cc1 | inactive
CCOc1ccc(N2C(=O)CC(N3CCN(c4ccc([N+](=O)[O-])cc4)CC3)C2=O)cc1 (stereo not drawn) | inactive
O=C(NCC1CCCCC1)C1(CC2CC(c3ccc(Cl)cc3)=NO2)CCNCC1 (stereo not drawn) | inconclusive: 20.6 µM [activator, partial curve]
Cc1ccc(OCC(=O)Nc2ccc(-c3nc4ccc(C)cc4o3)cc2)cc1 | inconclusive: 0.517 µM [activator, full curve]
CCOc1ccc(C(=O)Nc2ccc3nc(SCC(=O)N4CCOCC4)sc3c2)cc1 | inconclusive: 10.3 µM [falling, partial curve, poor fit]
O=[N+]([O-])c1ccc(C[n+]2cccc3ccc4cccnc4c32)cc1 | inconclusive: 29.1 µM [falling, single point]
COc1ccc(Cn2cc(CN3CCS(=O)(=O)N(Cc4ccc(-c5cccc(Cl)c5)cc4)C(C)C3=O)nn2)cc1 (stereo not drawn) | inconclusive: 23.1 µM [falling, single point]
O=C(c1ccc(Sc2ccccc2)c([N+](=O)[O-])c1)N1CCOCC1 | inactive
COC(=O)c1ccccc1NC(=O)CCCn1nc([N+](=O)[O-])c(Br)c1C | inconclusive: 20.6 µM [activator, partial curve, poor fit]
Cc1ccc2[nH]c(C(F)(F)F)cc(=O)c2c1 | inconclusive: 18.4 µM [falling, partial curve, poor fit]
Cc1cc(C)nc(NC2=NCC(=O)N2c2cccc(Cl)c2)n1 | inactive
Cc1cc(-c2ccccc2)nc(N/N=C/c2ccc(O)cc2O)n1 | inconclusive: 23.1 µM [falling, single point]
Cc1cccc(NC(=O)CN2C(=O)CCc3ccccc32)c1C | inconclusive: 18.4 µM [falling, single point]
CN(C)C(CNC(=O)c1ccc(S(=O)(=O)N(C)C)cc1)Cc1ccccc1 (stereo not drawn) | inconclusive: 29.1 µM [falling, single point]
O=[N+]([O-])c1cccc(/C=N/Nc2ccccn2)c1 | inconclusive: 7.31 µM [activator, partial curve]
CCc1ccc(CNC(=O)C2CCN(c3nnc(-n4c(C)ccc4C)s3)CC2)cc1 | inconclusive: 29.1 µM [falling, single point]

Some values from the list:
In Potency, Cc1cc(C)nc(NC2=NCC(=O)N2c2cccc(Cl)c2)n1 has the entry inactive
In Potency, O=[N+]([O-])c1cccc(/C=N/Nc2ccccn2)c1 has the entry inconclusive: 7.31 µM [activator, partial curve]

Reference: PubChem BioAssay AID504444 (National Center for Advancing Translational Sciences (NCATS), 2011)
